Data on two substances can be found in paper PMC5844867.

The chains behind the UniProt entries cited, without tags or fusion partners. Residues count along the entry.
UniProt Q60631, residues 60-152: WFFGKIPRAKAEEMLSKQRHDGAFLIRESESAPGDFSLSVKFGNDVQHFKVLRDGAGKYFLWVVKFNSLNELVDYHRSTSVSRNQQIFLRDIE
UniProt P15391, residues 20-556: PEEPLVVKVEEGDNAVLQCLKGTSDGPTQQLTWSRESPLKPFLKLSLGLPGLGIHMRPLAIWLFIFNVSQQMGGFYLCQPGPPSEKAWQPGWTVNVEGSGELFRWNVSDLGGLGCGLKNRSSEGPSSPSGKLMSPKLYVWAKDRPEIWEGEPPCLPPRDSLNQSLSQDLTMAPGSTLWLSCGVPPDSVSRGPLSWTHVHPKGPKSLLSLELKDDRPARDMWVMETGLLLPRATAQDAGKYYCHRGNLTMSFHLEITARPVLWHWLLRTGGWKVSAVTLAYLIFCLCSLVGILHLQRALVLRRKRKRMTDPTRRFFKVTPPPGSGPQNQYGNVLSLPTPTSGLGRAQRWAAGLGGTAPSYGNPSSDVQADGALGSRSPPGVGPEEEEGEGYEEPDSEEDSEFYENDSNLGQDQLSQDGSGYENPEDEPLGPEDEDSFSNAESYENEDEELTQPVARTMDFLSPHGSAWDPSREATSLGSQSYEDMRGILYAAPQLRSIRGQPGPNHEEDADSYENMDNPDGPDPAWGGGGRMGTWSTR
UniProt P11912, residues 33-226: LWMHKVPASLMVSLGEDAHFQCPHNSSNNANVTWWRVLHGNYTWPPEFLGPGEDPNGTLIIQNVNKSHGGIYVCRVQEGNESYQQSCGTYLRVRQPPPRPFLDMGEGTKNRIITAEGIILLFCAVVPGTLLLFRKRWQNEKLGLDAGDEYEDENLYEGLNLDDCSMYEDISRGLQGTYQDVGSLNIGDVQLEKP

The target in this test is Grb2 SH2 domain fused to GST (mouse) (UniProt Q60631). Put plainly: pull-down; 20 µg GST fusion protein bound to glutathione-sepharose; cleared lysates of parental and SLP65-deficient DG75 cells stimulated via the mIgM-BCR for three minutes; immunoblot; only the target purified. Background: A western blot detects proteins with antibodies after separation by electrophoresis.

Results are given in words; binding and its absence hold for the method and conditions named. In cells and extracts the contact can be indirect. Some entries that bind do so weakly or less than the wild type.

On to “B cell co-receptor CD19 (from UniProt P15391 20-556)”, for which the binding result is reported as “binds”. Under “Igα (CD79A) (from UniProt P11912 33-226) (receptor)” stands “binds”.
